Data taken from PMC9722938.
Results are given in words; binding and its absence hold for the method and conditions named. Binding seen in cells or lysates may run through a third protein. Some binding calls cover weakened binding; strength is not graded here. For some assays here: Tags and fused reporters may be left off the sequences shown.

Assays:
[1] = target: YAP (human (endogenous in ESCC cells)), P46937; test: co-IP; endogenous proteins in ESCC cell lysate, NP-40 buffer, Protein A/G magnetic beads, IP with anti-USP36 or anti-YAP overnight at 4 °C, IgG as negative control; details: remark: other sources report otherwise
Myc-YAP (human), P46937 = test: co-IP; cells transfected with Myc-YAP and Flag-tagged wild-type or truncated USP36, NP-40 lysate, IP with anti-Myc (YAP), blot for Flag; details: remark: other sources report otherwise

Binder | binding [1] | binding (Myc-YAP (human), P46937)
USP36, Q9P275 1-1123 (enzyme) MPIVDKLKEALKPGRKDSADDGELGKLLASSAKKVLLQKIEFEPASKSFSYQLEALKSKYVLLNPKTEGASRHKSGDDPPARRQGSEHTYESCGDGVPAPQKVLFPTERLSLRWERVFRVGAGLHNLGNTCFLNATIQCLTYTPPLANYLLSKEHARSCHQGSFCMLCVMQNHIVQAFANSGNAIKPVSFIRDLKKIARHFRFGNQEDAHEFLRYTIDAMQKACLNGCAKLDRQTQATTLVHQIFGGYLRSRVKCSVCKSVSDTYDPYLDVALEIRQAANIVRALELFVKADVLSGENAYMCAKCKKKVPASKRFTIHRTSNVLTLSLKRFANFSGGKITKDVGYPEFLNIRPYMSQNNGDPVMYGLYAVLVHSGYSCHAGHYYCYVKASNGQWYQMNDSLVHSSNVKVVLNQQAYVLFYLRIPGSKKSPEGLISRTGSSSLPGRPSVIPDHSKKNIGNGIISSPLTGKRQDSGTMKKPHTTEEIGVPISRNGSTLGLKSQNGCIPPKLPSGSPSPKLSQTPTHMPTILDDPGKKVKKPAPPQHFSPRTAQGLPGTSNSNSSRSGSQRQGSWDSRDVVLSTSPKLLATATANGHGLKGNDESAGLDRRGSSSSSPEHSASSDSTKAPQTPRSGAAHLCDSQETNCSTAGHSKTPPSGADSKTVKLKSPVLSNTTTEPASTMSPPPAKKLALSAKKASTLWRATGNDLRPPPPSPSSDLTHPMKTSHPVVASTWPVHRARAVSPAPQSSSRLQPPFSPHPTLLSSTPKPPGTSEPRSCSSISTALPQVNEDLVSLPHQLPEASEPPQSPSEKRKKTFVGEPQRLGSETRLPQHIREATAAPHGKRKRKKKKRPEDTAASALQEGQTQRQPGSPMYRREGQAQLPAVRRQEDGTQPQVNGQQVGCVTDGHHASSRKRRRKGAEGLGEEGGLHQDPLRHSCSPMGDGDPEAMEESPRKKKKKKRKQETQRAVEEDGHLKCPRSAKPQDAVVPESSSCAPSANGWCPGDRMGLSQAPPVSWNGERESDVVQELLKYSSDKAYGRKVLTWDGKMSAVSQDAIEDSRQARTETVVDDWDEEFDRGKEKKIKKFKREKRRNFNAFQKLQTRRNFWSVTHPAKAASLSYRR | binds | 
USP36-Flag, Q9P275 1-1123 (enzyme) MPIVDKLKEALKPGRKDSADDGELGKLLASSAKKVLLQKIEFEPASKSFSYQLEALKSKYVLLNPKTEGASRHKSGDDPPARRQGSEHTYESCGDGVPAPQKVLFPTERLSLRWERVFRVGAGLHNLGNTCFLNATIQCLTYTPPLANYLLSKEHARSCHQGSFCMLCVMQNHIVQAFANSGNAIKPVSFIRDLKKIARHFRFGNQEDAHEFLRYTIDAMQKACLNGCAKLDRQTQATTLVHQIFGGYLRSRVKCSVCKSVSDTYDPYLDVALEIRQAANIVRALELFVKADVLSGENAYMCAKCKKKVPASKRFTIHRTSNVLTLSLKRFANFSGGKITKDVGYPEFLNIRPYMSQNNGDPVMYGLYAVLVHSGYSCHAGHYYCYVKASNGQWYQMNDSLVHSSNVKVVLNQQAYVLFYLRIPGSKKSPEGLISRTGSSSLPGRPSVIPDHSKKNIGNGIISSPLTGKRQDSGTMKKPHTTEEIGVPISRNGSTLGLKSQNGCIPPKLPSGSPSPKLSQTPTHMPTILDDPGKKVKKPAPPQHFSPRTAQGLPGTSNSNSSRSGSQRQGSWDSRDVVLSTSPKLLATATANGHGLKGNDESAGLDRRGSSSSSPEHSASSDSTKAPQTPRSGAAHLCDSQETNCSTAGHSKTPPSGADSKTVKLKSPVLSNTTTEPASTMSPPPAKKLALSAKKASTLWRATGNDLRPPPPSPSSDLTHPMKTSHPVVASTWPVHRARAVSPAPQSSSRLQPPFSPHPTLLSSTPKPPGTSEPRSCSSISTALPQVNEDLVSLPHQLPEASEPPQSPSEKRKKTFVGEPQRLGSETRLPQHIREATAAPHGKRKRKKKKRPEDTAASALQEGQTQRQPGSPMYRREGQAQLPAVRRQEDGTQPQVNGQQVGCVTDGHHASSRKRRRKGAEGLGEEGGLHQDPLRHSCSPMGDGDPEAMEESPRKKKKKKRKQETQRAVEEDGHLKCPRSAKPQDAVVPESSSCAPSANGWCPGDRMGLSQAPPVSWNGERESDVVQELLKYSSDKAYGRKVLTWDGKMSAVSQDAIEDSRQARTETVVDDWDEEFDRGKEKKIKKFKREKRRNFNAFQKLQTRRNFWSVTHPAKAASLSYRR |  | binds
